Experimental data from patent publication US5763408A, “Amino acid derivatives and application thereof” (Fuji Photo Film Co., Ltd., priority 1992, dated 1998).
Part of at least one peptide drawing is inferred or uncertain, most often the ends.

Assays:
B16-BL6 melanoma cells = assay: Experimental metastasis test of B16-BL6 melanoma cells in lung; assay type: in vivo, C57BL/6 female mice; conditions: day 14
Method: Tumor metastasis inhibition activities of the compounds of the present invention were examined.
(§1) A test compound and B16-BL6 melanoma cells, which have strong metastatic property, were mixed in PBS. 0.2 ml of the mixture was intravenously injected to each of C57BL/6 female mice, of which groups each consisted of 5 mice. The mixture injected (0.2 ml) contained 5×10^4 B16-BL6 cells. On the 14th day from the administration, number of melanoma cell colonies was determined and compared with that of control mice, which were administered with PBS.

colon 26/M3.1 cells = assay: Experimental metastasis test of colon 26/M3.1 cells in lung; assay type: in vivo, C57BL/6 female mice; conditions: Table 13, 1000 μg/mouse, day 14, PBS control 148 ± 12
Method: as §1, with “colon 26/M3.1” for “B16-BL6 melanoma”, “4×10^4 colon 26/M3.1” for “5×10^4 B16-BL6”, “of” for “of melanoma cell”, “colonies in lung” for “colonies”
A segment peptide of fibronectin, Gly-Arg-Gly-Asp-Ser (GRGDS), of which tumour metastasis inhibition activities have been known, was used as a comparative sample.

SMILES | Number of colonies (Mean ± SD) (B16-BL6 melanoma cells; Table 7, 500 μg/mouse, PBS control 101 ± 28) | Number of colonies (Mean ± SD) (B16-BL6 melanoma cells; Table 8, 1000 μg/mouse, PBS control 168 ± 28) | Number of colonies (Mean ± SD) (B16-BL6 melanoma cells; Table 9, 1000 μg/mouse, PBS control 168 ± 28) | Number of colonies (Mean ± SD) (colon 26/M3.1 cells) | Number of colonies (Mean ± SD) (B16-BL6 melanoma cells; Table 2, 3000 μg/mouse i.v. mixed with cells, PBS control 141 ± 16) | Number of colonies (Mean ± SD) (B16-BL6 melanoma cells; Table 3, 1000 μg/mouse, PBS control 81 ± 23) | Number of colonies (Mean ± SD) (B16-BL6 melanoma cells; Table 4, 1000 μg/mouse, PBS control 96 ± 14) | Number of colonies (Mean ± SD) (B16-BL6 melanoma cells; Table 5, 1000 μg/mouse, PBS control 118 ± 15) | Number of colonies (Mean ± SD) (B16-BL6 melanoma cells; Table 6, 1000 μg/mouse, PBS control 103 ± 30) | Number of colonies (Mean ± SD) (B16-BL6 melanoma cells; Table 10, 1000 μg/mouse, PBS control 237 ± 29) | Number of colonies (Mean ± SD) (B16-BL6 melanoma cells; Table 11, 1000 μg/mouse, PBS control 114 ± 28)
N=C(N)NCCC[C@H](NC(=O)CN)C(=O)NCC(=O)N[C@@H](CC(=O)O)C(=O)N[C@@H](CO)C(=O)O [GRGDS, Gly-Arg-Gly-Asp-Ser, reference compound] | 93 ± 45 | 108 ± 17 | 108 ± 17 | 111 ± 19 | – | – | – | – | – | – | –
N=C(N)NCCC[C@H](N)C(=O)NCC(=O)N[C@@H](CC(=O)O)C(=O)N[C@@H](CO)C(=O)O [RGDS, Arg-Gly-Asp-Ser, reference compound] | – | – | – | – | 86 ± 15 | 89 ± 23 | 83 ± 14 | 80 ± 23 | 132 ± 26 | 234 ± 22 | 114 ± 24
